Results are given in words; binding and its absence hold for the method and conditions named. Some binding calls cover weakened binding; strength is not graded here.
Legend:
[1] = target: hKLB-ECD-HIS protein (human) (UniProt Q86Z14); experiment: FGF protein on KLB-ECD held by BsAb10 (FIG. 14A)
[2] = target: hKLB-ECD-HIS protein (human) (UniProt Q86Z14); experiment: KLB-ECD captured on immobilised BsAb10, then FGF19 at 0.2, 0.8 or 2 µM (traces not keyed to the concentrations); SPR per legend paragraph 67, bio-layer interferometry per paragraph 416

Sequences of proteins named here, by UniProt entry; tags and fusion partners are left off. A change or cut given only in a name is not applied to a line headed by its entry. Residues count along the entry.
UniProt Q86Z14: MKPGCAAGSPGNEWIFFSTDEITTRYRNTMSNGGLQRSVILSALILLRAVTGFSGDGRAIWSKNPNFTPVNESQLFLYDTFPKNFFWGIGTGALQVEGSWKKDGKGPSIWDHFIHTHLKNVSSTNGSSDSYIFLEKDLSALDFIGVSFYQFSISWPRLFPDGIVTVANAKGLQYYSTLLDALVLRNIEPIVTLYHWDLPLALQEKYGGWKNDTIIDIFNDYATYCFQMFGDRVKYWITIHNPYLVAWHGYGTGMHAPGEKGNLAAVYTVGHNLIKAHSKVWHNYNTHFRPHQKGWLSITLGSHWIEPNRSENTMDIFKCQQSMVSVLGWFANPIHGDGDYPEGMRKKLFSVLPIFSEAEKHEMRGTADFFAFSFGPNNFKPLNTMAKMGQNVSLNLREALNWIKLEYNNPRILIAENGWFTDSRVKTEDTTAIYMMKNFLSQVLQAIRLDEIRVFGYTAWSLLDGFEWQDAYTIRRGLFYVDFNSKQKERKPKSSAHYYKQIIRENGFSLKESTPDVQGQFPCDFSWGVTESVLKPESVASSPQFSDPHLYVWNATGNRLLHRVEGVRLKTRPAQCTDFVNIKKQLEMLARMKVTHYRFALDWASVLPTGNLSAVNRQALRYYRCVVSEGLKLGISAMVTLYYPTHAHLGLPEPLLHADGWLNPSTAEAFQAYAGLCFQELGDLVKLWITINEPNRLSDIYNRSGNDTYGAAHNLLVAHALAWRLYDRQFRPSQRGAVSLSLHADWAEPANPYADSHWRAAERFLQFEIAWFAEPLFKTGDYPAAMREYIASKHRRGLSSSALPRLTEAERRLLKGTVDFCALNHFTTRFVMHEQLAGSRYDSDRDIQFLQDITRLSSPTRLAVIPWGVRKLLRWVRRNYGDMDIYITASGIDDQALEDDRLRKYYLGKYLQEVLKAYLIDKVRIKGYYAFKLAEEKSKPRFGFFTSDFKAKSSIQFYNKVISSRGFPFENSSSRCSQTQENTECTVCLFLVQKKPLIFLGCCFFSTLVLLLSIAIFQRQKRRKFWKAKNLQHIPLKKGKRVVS
UniProt O95750, residues 25-216: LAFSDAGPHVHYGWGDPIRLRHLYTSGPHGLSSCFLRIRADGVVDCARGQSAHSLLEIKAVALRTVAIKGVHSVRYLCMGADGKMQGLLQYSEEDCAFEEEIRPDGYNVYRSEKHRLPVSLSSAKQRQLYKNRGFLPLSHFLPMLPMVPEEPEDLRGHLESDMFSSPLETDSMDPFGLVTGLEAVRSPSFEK

FGF19 (from UniProt O95750 25-216) (ligand)
binding [1]: binds | binding [2]: binds
